Some results were stated once for a whole list of compounds, not compound by compound. For at least one compound, name, drawing or mass did not settle the structure.
Test system: two-spotted spider mites
Assay: Insecticidal test on two-spotted spider mites (Test Example 1)
Type: in vivo, Tetranychus urticae
Conditions: wettable powder diluted to 500 ppm active ingredient; soybean seedlings inoculated with adult mites immersed; survivors counted after 13 days; Equation 1
Description: Test Example 1 Insecticidal Test on Two-Spotted Spider Mites

SMILES | preventive value
Cc1ccc(-n2ccc(C(F)(F)F)n2)cc1SCC(F)(F)F [Compound V-292, [2-methyl-5-(3-trifluoromethylpyrazolyl)phenyl] 2,2,2-trifluoroethyl sulfide] | ≥ 90
Cc1cc(F)c(-n2ccc(C(F)(F)F)n2)cc1[S+]([O-])CC(F)(F)F (racemic) [Compound V-614] | ≥ 90
CCCSc1cc(-n2cc(C(F)(F)F)cn2)ccc1C#N [Compound V-635] | ≥ 90
N#Cc1cc(SCC(F)(F)F)c(-n2ccc(C(F)(F)F)n2)cc1SCC(F)(F)F [Compound V-688] | ≥ 90
N#Cc1ccc(-n2cc(Cl)c(C(F)(F)F)n2)cc1SCC1CC1 [Compound V-103] | ≥ 90
[O-][S+](CC(F)(F)F)c1cc(-n2cc(C(F)(F)F)cn2)ccc1C(F)F (racemic) [Compound V-652] | ≥ 90
CC(C)[S+]([O-])c1cc(-n2ccc(C(F)(F)F)n2)ccc1C#N (stereo not drawn) [Compound V-38] | ≥ 90
CCC[S+]([O-])c1cc(-n2cc(C)c(C(F)(F)F)n2)ccc1C#N (stereo not drawn) [Compound V-120] | ≥ 90
CCCSc1cc(-n2ccc(C(F)(F)F)n2)ccc1C [Compound V-176, [2-methyl-5-(3-trifluoromethylpyrazolyl)phenyl] propyl sulfide] | ≥ 90
Cc1cc(F)c(-n2cc(C(F)(F)F)cn2)cc1SCC(F)(F)F [Compound V-659] | ≥ 90
N#Cc1ccc(-n2cccn2)cc1SCC(F)(F)F [Compound V-13] | ≥ 90
Fc1cc(Cl)c(SCC(F)(F)F)cc1-n1ccc(C(F)(F)F)n1 [Compound V-700] | ≥ 90
Cc1ccc(-n2cc(C)c(C(F)(F)F)n2)cc1SCC(F)(F)F [Compound V-365] | ≥ 90
N#Cc1ccc(-n2ccc(C(F)(F)F)n2)cc1SCC(F)(F)F [Compound V-27, 2-(2,2,2-trifluoroethylthio)-4-(3-trifluoromethylpyrazolyl)benzonitrile] | ≥ 90
CN(C)c1ccc(-n2ccc(C(F)(F)F)n2)cc1SCC(F)(F)F [Compound V-285] | ≥ 90
Cc1ccc(-n2cc(C(F)(F)F)cn2)cc1[S+]([O-])CC(F)(F)F (racemic) [Compound V-646] | ≥ 90
CNc1ccc(-n2ccc(C(F)(F)F)n2)cc1SCC(F)(F)F [Compound V-284] | ≥ 90
CCCSc1cc(-n2ccc(C(F)(F)F)n2)ccc1N [Compound V-167] | ≥ 90
N#Cc1ccc(-n2cc(Cl)c(C(F)(F)F)n2)cc1[S+]([O-])CC1CC1 (stereo not drawn) [Compound V-113] | ≥ 90
Fc1cc(Cl)c(SCC2CC2)cc1-n1ccc(C(F)(F)F)n1 [Compound V-698] | ≥ 90
CCCSc1cc(-n2cc(Cl)c(C(F)(F)F)n2)ccc1C#N [Compound V-95] | ≥ 90
